Measured values taken from the supplement of paper PMC12067093, “Discovery and optimisation of a covalent ligand for TRIM25 and its application to targeted protein ubiquitination” (Chemical Science, 2025).
Some of the results follow.

Compound: CC1Cc2ccccc2N1C(=O)C1CCCN(C1)C(=O)CCl (mixture of isomers) [TRIM25 ligand 11 (diastereomer mixture)]
Experiment: probe-labelled cysteine peptide fold change vs DMSO (competition) (log2 fold change); higher = less target engagement (more negative = stronger competition)
Settings: THP-1, incubation time: 4 h
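Also: competitive chemoproteomic profiling in live THP-1 cells with an iodoacetamide desthiobiotin (IA-DTB) probe, comparing probe-labelled peptide intensities in compound-treated cells against DMSO-treated controls.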

Row | Target | probe-labelled cysteine peptide fold change (10 µM) | probe-labelled cysteine peptide fold change (50 µM)
1 | BCKDK_O14874_118_CLPFIIGCNPTILHVHELYIR (UniProt O14874) | 0.128 | 0.102
2 | BAZ2B_Q9UIF8_1960_GCHTYCHRPK (UniProt Q9UIF8) | 0.0324 | -0.0424
3 | BAZ2A_Q9UIF9_583_WQGETWYYGPCGK (UniProt Q9UIF9) | 0.0709 | -0.0742
4 | BMP2K_Q9NSY1_292_NIHCLIR (UniProt Q9NSY1) | 0.0146 | 0.0903
5 | AVEN_Q9NQS1_169_EWDSEASCPK (UniProt Q9NQS1) | -0.188 | -0.472
6 | BAZ1B_Q9UIG0_1213_AFHLFCLRPALYEVPDGEWQCPACQPATAR (UniProt Q9UIG0) | 0.117 | -0.0991
7 | BAZ1B_Q9UIG0_338_LWCHVHLK (UniProt Q9UIG0) | -0.0182 | -0.194
8 | BAZ1A_Q9NRL2_970_SSNAYDPSQMCAEK (UniProt Q9NRL2) | 0.0359 | -0.213
9 | BPTF_Q12830_1471_CELVSGESTGNCEDRLPVK (UniProt Q12830) | -0.109 | -0.152
10 | BCAT1_P54687_293_CILDLAHQWGEFK (UniProt P54687) | -0.0437 | -0.0238
11 | BAZ2A_Q9UIF9_917_AALHDPGFPSYCQSLK (UniProt Q9UIF9) | 0.114 | 0.0126
12 | B3GALT6_Q96L58_271_GCSNQYLVTHK (UniProt Q96L58) | 0.00219 | -0.0349
13 | B4GALT7_Q9UBV7_75_ACPPEPPPEHWEEDASWGPHR (UniProt Q9UBV7) | 0.0722 | -0.0496
14 | BABAM2_Q9NXR7_254_IEHALGGSSALHIPAFPGGGCLIDYVPQVCHLLTNK (UniProt Q9NXR7) | 0.0304 | 0.0849
15 | ATR_Q13535_1343_GCQDANSQAR (UniProt Q13535) | 0.132 | 0.0788
16 | BAZ1B_Q9UIG0_1175_MHVLLGMLDACIK (UniProt Q9UIG0) | -0.144 | -0.227
17 | BLOC1S3_Q6QNY0_168_GDLCALAER (UniProt Q6QNY0) | -0.209 | -0.549
18 | BCOR_Q6W2J9_1525_HLLEYGADVNCSAQDGTRPLHDAVENDHLEIVR (UniProt Q6W2J9) | 0.055 | 0.173
19 | BAZ1A_Q9NRL2_621_ILHALCGK (UniProt Q9NRL2) | -0.129 | 0.0867
20 | AZU1_P20160_68_FVMTAASCFQSQNPGVSTVVLGAYDLR (UniProt P20160) | -0.151 | -0.152
21 | BANF1_O75531_67_DTCGANAK (UniProt O75531) | -0.084 | 0.00517

Row | Target | probe-labelled cysteine peptide fold change (10 µM) | probe-labelled cysteine peptide fold change (50 µM)
22 | BCAR1_P56945_46_KGDIMTVLEQDTQGLDGWWLCSLHGR (UniProt P56945) | -0.0121 | -0.0222
23 | BAG3_O95817_151_QCGQVAAAAAAQPPASHGPER (UniProt O95817) | -0.0373 | -0.11
24 | BABAM2_Q9NXR7_129_ELVQQYHQFQCSR (UniProt Q9NXR7) | 0.335 | 0.209
25 | BAG5_Q9UL15_218_HLSCVLSGLIADLDALDVCGR (UniProt Q9UL15) | -0.178 | -0.439
26 | BAG5_Q9UL15_360_LFACEEHPSHK (UniProt Q9UL15) | 0.146 | -0.201
27 | BIRC6_Q9NR09_2067_HLCISGTPK (UniProt Q9NR09) | 0.0333 | 0.185
28 | BOD1L1_Q8NFC6_2384_HKVPMPSLIAENNCR (UniProt Q8NFC6) | -0.222 | -0.258
29 | BPNT1_O95861_59_LAQMSICSSLAR (UniProt O95861) | 0.0908 | -0.0214
30 | BIRC6_Q9NR09_1293_GCDLLQEVSVTIRR (UniProt Q9NR09) | -0.178 | -0.0856
31 | BCKDK_O14874_111+118_CLPFIIGCNPTILHVHELYIR (UniProt O14874) | 0.153 | 0.248
32 | BIRC6_Q9NR09_613_TQGESISEQGSTDNESCTNSELNSPLVR (UniProt Q9NR09) | -0.0519 | -0.309
33 | BAG6_P46379_345+349_CNLACTPPR (UniProt P46379) | -0.182 | -0.296
34 | BLNK_Q8WV28_271_TTPVASQQNASSVCEEKPIPAER (UniProt Q8WV28) | 0.0403 | -0.105
35 | BIRC6_Q9NR09_4183_KHAQCLLR (UniProt Q9NR09) | -0.0367 | -0.134
36 | ATRX_P46100_605_GADCQEVPQDK (UniProt P46100) | -0.192 | -0.41
37 | BIRC6_Q9NR09_3673_RHHVPQQCNK (UniProt Q9NR09) | -0.0858 | -0.242
38 | BPGM_P07738_145_VCDVPLDQLPR (UniProt P07738) | -0.246 | 0.0525
39 | AURKB_Q96GD4_191_TATIMEELADALMYCHGK (UniProt Q96GD4) | -0.0605 | -0.0376
40 | BAG6_P46379_349_CNLACTPPR (UniProt P46379) | 0.0312 | 0.0685
41 | BICD2_Q8TD16_544_KVSDVAGETQGSLSVAQDELVTFSEELANLYHHVCMCNNETPNR (UniProt Q8TD16) | -0.349 | -0.194
42 | BABAM1_Q9NWV8_222_TILVYSRPPCQPQFSLTEPMKK (UniProt Q9NWV8) | -0.0268 | -0.16

Shown tab-delimited: part of the list above.
Row	Target	probe-labelled cysteine peptide fold change (10 µM)	probe-labelled cysteine peptide fold change (50 µM)
30	BIRC6_Q9NR09_1293_GCDLLQEVSVTIRR (UniProt Q9NR09)	-0.178	-0.0856
31	BCKDK_O14874_111+118_CLPFIIGCNPTILHVHELYIR (UniProt O14874)	0.153	0.248
32	BIRC6_Q9NR09_613_TQGESISEQGSTDNESCTNSELNSPLVR (UniProt Q9NR09)	-0.0519	-0.309
33	BAG6_P46379_345+349_CNLACTPPR (UniProt P46379)	-0.182	-0.296

Next results.

Row | Target | probe-labelled cysteine peptide fold change (10 µM) | probe-labelled cysteine peptide fold change (50 µM)
43 | AZU1_P20160_207_RGGICNGDGGTPLVCEGLAHGVASFSLGPCGR (UniProt P20160) | 0.241 | 0.307
44 | BAZ1A_Q9NRL2_1177_GHHTYCVRPK (UniProt Q9NRL2) | 0.0609 | -0.0936
45 | ATR_Q13535_1430_AQDSAAYAIQELLSIYDCR (UniProt Q13535) | 0.122 | -0.141
46 | BAZ2A_Q9UIF9_795_AKPACK (UniProt Q9UIF9) | -0.193 | -0.0702
47 | BAZ1B_Q9UIG0_1006_ELDELLNCLHPQGIR (UniProt Q9UIG0) | 0.0226 | 0.00108
48 | BCAT2_O15382_342_EVFGSGTACQVCPVHR (UniProt O15382) | -0.148 | -0.0849
49 | ATXN10_Q9UBB4_165_NEDSQSIVWVHAFPELFLSCLNHPDKK (UniProt Q9UBB4) | 0.145 | 0.235
50 | BAZ1B_Q9UIG0_497_SALSCVISK (UniProt Q9UIG0) | -0.148 | -0.448
51 | BAZ1A_Q9NRL2_764_QEQINCVTREPLTADEEEALKQEHQR (UniProt Q9NRL2) | -0.357 | -0.181
52 | BAZ1B_Q9UIG0_120_YAVGEECDFEVGK (UniProt Q9UIG0) | -0.0349 | -0.0339
53 | BOD1L1_Q8NFC6_1071_RLCENR (UniProt Q8NFC6) | 0.0518 | -0.0137
54 | BARGIN_Q6ZT62_346_QTMASDPHSLEEFCSDPHAVAGALK (UniProt Q6ZT62) | -0.0814 | -0.00364
55 | BLM_P54132_1364_GGSATCR (UniProt P54132) | -0.0198 | -0.0557
56 | B4GALT1_P15291_262_CFSQPR (UniProt P15291) | 0.284 | 0.173
57 | AUP1_Q9Y679_124_VLISNHVTPFDHNIVNLLTTCSTPLLNSPPSFVCWSR (UniProt Q9Y679) | 0.143 | 0.389
58 | BCKDHB_P21953_299_LGVSCEVIDLR (UniProt P21953) | 0.0507 | -0.0397
59 | BAG5_Q9UL15_191_INFVMCEVNK (UniProt Q9UL15) | 0.0985 | 0.111
60 | BAG1_Q99933_213_EMETPLSALGIQDGCR (UniProt Q99933) | -0.139 | -0.109
61 | BAZ1A_Q9NRL2_764_QEQINCVTREPLTADEEEALK (UniProt Q9NRL2) | 0.112 | 0.0187
62 | BMS1_Q14692_757_FLVEAPHDWDLEEVMNSIRDCFVTGK (UniProt Q14692) | -0.215 | -0.385
63 | BARGIN_Q6ZT62_213_RKVEQCRDEYLADLYHFVTK (UniProt Q6ZT62) | -0.186 | -0.111

Single records, as listed above. Values in the order: probe-labelled cysteine peptide fold change (10 µM) | probe-labelled cysteine peptide fold change (50 µM)
BAZ1B_Q9UIG0_120_YAVGEECDFEVGK (UniProt Q9UIG0) reads -0.0349 | -0.0339
BOD1L1_Q8NFC6_1071_RLCENR (UniProt Q8NFC6) reads 0.0518 | -0.0137

The list goes on.

Row | Target | probe-labelled cysteine peptide fold change (10 µM) | probe-labelled cysteine peptide fold change (50 µM)
64 | BCAT2_O15382_147_LCLPSFDKLELLECIR (UniProt O15382) | -0.15 | 0.04
65 | BCKDHA_P12694_178_DYPLELFMAQCYGNISDLGK (UniProt P12694) | -0.0403 | -0.212
66 | AZU1_P20160_222_RGGICNGDGGTPLVCEGLAHGVASFSLGPCGR (UniProt P20160) | -0.0724 | -0.0963
67 | BAZ1A_Q9NRL2_547_SLDLDSCTLSEILR (UniProt Q9NRL2) | -0.0105 | 0.0488
68 | ATRX_P46100_1814_AHILYEMLAGCVQR (UniProt P46100) | -0.025 | 0.133
69 | BAG6_P46379_856_TNLEFLQEQFNSIAAHVLHCTDSGFGAR (UniProt P46379) | -0.0233 | -0.127
70 | BCKDHB_P21953_207_SPWGCVGHGALYHSQSPEAFFAHCPGIK (UniProt P21953) | 0.0884 | -0.0392
71 | BCL2L12_Q9HB09_266_ACPGPPPPSPEPLAR (UniProt Q9HB09) | -0.118 | -0.397
72 | BPNT1_O95861_42_TCATDLQTK (UniProt O95861) | -0.0574 | -0.188
73 | BAZ1B_Q9UIG0_994_QGQNLWFLCDSQK (UniProt Q9UIG0) | -0.0254 | -0.0149
74 | BAZ2A_Q9UIF9_888_DVPSLGVLQEGLLCQGDSLGEVQDLLVR (UniProt Q9UIF9) | -0.142 | 0.0943
75 | BAZ2A_Q9UIF9_1697_KGDNDEFLLLCDGCDR (UniProt Q9UIF9) | 0.0208 | -0.0208
76 | BOP1_Q14137_532_ICHGKPVTQVTWHGR (UniProt Q14137) | 0.117 | 0.402
77 | B4GALT3_O60512_209_EALRDEEWDCLFLHDVDLLPENDHNLYVCDPR (UniProt O60512) | 0.0102 | -0.078
78 | BAG5_Q9UL15_166_ICAVQEIIEDCMK (UniProt Q9UL15) | 0.124 | 0.182
79 | BCAP29_Q9UHQ4_171_DEECVLEAENK (UniProt Q9UHQ4) | 0.371 | 0.156
80 | BIRC6_Q9NR09_4601_CDEERLDIMK (UniProt Q9NR09) | -0.138 | -0.0807
81 | BAG1_Q99933_322_VQAFLAECDTVEQNICQETER (UniProt Q99933) | -0.219 | -0.0595
82 | AZU1_P20160_52_HFCGGALIHAR (UniProt P20160) | -0.072 | 0.156
